Consider one molecule from paper PMC8372404 (Frontiers in Neuroscience, 2021).

pIC50: −log10 of the molar value.

This experiment has as its target [3H]-LCGA-17 binding site in rat brain membranes (putative α2δ). Briefly: [3H]-LCGA-17 radioligand competition binding assay. To be noted: competition of [3H]-LCGA-17 (16 nM) binding, Table S1. In general terms: Loss of bound radioactivity is the signal in a displacement assay; it reports binding, not function.

As a reminder, the pIC50 is the negative decadic logarithm of the IC50, by convention in mol/L. High values mean a low IC50, low ones a high IC50. Take `O=C(CCCN1CCC(O)(c2ccc(Cl)cc2)CC1)c1ccc(F)cc1` [Haloperidol]: the pIC50 is under 4.00.
